Source: article PMC11428915
No constants are given. Whether binding was seen depends on the method and setting. In cells and extracts the contact can be indirect. Some results given as binding are weak or reduced against the parent protein; the word gives no strength.

The chains behind the UniProt entries cited, without tags or fusion partners. Where a name states a change or a piece, a line headed by the entry shows the natural chain unless it says otherwise.
UniProt O60637: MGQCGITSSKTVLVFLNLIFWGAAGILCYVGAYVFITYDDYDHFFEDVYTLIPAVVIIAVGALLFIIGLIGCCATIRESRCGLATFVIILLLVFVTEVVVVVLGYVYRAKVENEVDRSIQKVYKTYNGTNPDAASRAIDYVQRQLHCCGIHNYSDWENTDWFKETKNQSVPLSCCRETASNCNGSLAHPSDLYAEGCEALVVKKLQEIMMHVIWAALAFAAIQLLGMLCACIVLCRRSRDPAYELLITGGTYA
UniProt P62491: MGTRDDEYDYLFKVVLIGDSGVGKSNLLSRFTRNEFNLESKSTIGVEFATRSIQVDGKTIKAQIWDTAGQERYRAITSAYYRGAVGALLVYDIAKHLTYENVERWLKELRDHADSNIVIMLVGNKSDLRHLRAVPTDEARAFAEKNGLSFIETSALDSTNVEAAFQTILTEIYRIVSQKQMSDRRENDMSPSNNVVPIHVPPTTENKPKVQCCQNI
UniProt P05556: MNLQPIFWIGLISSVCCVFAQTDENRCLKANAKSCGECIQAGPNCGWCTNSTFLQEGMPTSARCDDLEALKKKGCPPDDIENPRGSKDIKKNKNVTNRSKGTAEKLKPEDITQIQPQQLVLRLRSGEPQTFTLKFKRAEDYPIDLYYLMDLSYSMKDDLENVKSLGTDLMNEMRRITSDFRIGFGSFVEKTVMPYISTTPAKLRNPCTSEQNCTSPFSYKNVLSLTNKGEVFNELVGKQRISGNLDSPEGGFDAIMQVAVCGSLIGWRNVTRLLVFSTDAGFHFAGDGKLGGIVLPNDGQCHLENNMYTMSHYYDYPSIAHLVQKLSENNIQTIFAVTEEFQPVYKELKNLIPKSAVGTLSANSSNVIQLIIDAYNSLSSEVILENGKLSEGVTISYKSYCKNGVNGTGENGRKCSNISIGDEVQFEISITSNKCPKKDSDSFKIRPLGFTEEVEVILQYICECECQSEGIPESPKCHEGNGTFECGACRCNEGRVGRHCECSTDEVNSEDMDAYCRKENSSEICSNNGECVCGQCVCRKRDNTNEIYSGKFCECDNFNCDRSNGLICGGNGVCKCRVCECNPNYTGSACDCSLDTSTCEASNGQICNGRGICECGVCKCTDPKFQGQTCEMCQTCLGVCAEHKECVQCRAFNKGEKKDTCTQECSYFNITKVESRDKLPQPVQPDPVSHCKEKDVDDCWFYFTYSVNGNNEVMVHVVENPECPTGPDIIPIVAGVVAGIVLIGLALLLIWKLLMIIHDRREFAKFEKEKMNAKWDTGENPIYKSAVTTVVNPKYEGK

Assays:
[1] = molecular target: Endogenous tetraspanin 3 (TSPAN3) of A549 cells (human (endogenous in A549)) (UniProt O60637); assay: co-IP; A549 cell lysates, endogenous proteins; immunoprecipitated with anti-TSPAN3 antibody or control IgG, western blot of the partner
Wild-type GFP-TSPAN3 = Wild-type GFP-TSPAN3 (UniProt O60637); assay: co-IP; A549 cells, 48 h after transfection of wild-type GFP-TSPAN3 or TSPAN3-ΔLEL; lysates immunoprecipitated with anti-GFP antibody, western blot of the partner
[2] = molecular target: Myc-FLAG-TSPAN3 (tetraspanin 3), ectopically expressed from pCMV6-Myc-FLAG-TSPAN3 (UniProt O60637); assay: co-IP; A549 cells, 48 h after transfection of pCMV6-Myc-FLAG-TSPAN3; lysates immunoprecipitated with anti-FLAG antibodies or control IgG, western blot of the partner

Measured: binding

Ras-related protein Rab-11a, endogenous in A549 cells (from UniProt P62491 1-216)
binds: all assays above

β1 integrin, endogenous in A549 cells (from UniProt P05556 21-798) (receptor)
binds: all assays above
